Results published in paper PMC11587651, “Increased cytoplasmic expression of PETase enzymes in E. coli” (Microbial Cell Factories, 2024).
No constants are given. Whether binding was seen depends on the method and setting.

Protein sequences, listed by entry. Tags and fused reporters are not part of them. Residues count along the entry.
UniProt A0A0K8P6T7, residues 28-290: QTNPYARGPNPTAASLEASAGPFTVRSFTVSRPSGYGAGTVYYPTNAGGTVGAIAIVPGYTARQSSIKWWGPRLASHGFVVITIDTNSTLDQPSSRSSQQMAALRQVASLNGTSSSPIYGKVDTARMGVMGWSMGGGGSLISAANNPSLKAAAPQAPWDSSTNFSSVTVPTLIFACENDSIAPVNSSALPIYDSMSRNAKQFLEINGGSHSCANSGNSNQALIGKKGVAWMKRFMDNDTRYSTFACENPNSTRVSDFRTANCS

Molecular target: PETase from Ideonella sakaiensis (IsPETase) (Ideonella sakaiensis)
Test: SEC; Superdex 75 Increase 10/300 GL, isocratic, 50 mM sodium phosphate (pH 7), 30 mM NaCl, 0.01% (w/v) sodium azide, 1 mL/min; 100 µL of purified IsPETase; protein standards for molecular weight; both purified

“PETase from Ideonella sakaiensis (IsPETase) (from UniProt A0A0K8P6T7 28-290) (enzyme)” was tested. Which binding did it give?
The binding was “no binding”.
